Patent US20220323386A1 (UNIVERSITY OF SOUTHERN CALIFORNIA, published 2022)
These are yes or no findings as the source states them, for the method shown. For some of these results: Binding seen in cells or lysates may run through a third protein. Some binding calls cover weakened binding; strength is not graded here. For some of these results: Sequences can lack the tags named with a protein. Blank lines part the entries; values can stand above or below the molecule they belong to.

Amino acid sequences for entries named in this document (tags omitted). Residues count along the entry.
UniProt P46531, residues 1754-2555: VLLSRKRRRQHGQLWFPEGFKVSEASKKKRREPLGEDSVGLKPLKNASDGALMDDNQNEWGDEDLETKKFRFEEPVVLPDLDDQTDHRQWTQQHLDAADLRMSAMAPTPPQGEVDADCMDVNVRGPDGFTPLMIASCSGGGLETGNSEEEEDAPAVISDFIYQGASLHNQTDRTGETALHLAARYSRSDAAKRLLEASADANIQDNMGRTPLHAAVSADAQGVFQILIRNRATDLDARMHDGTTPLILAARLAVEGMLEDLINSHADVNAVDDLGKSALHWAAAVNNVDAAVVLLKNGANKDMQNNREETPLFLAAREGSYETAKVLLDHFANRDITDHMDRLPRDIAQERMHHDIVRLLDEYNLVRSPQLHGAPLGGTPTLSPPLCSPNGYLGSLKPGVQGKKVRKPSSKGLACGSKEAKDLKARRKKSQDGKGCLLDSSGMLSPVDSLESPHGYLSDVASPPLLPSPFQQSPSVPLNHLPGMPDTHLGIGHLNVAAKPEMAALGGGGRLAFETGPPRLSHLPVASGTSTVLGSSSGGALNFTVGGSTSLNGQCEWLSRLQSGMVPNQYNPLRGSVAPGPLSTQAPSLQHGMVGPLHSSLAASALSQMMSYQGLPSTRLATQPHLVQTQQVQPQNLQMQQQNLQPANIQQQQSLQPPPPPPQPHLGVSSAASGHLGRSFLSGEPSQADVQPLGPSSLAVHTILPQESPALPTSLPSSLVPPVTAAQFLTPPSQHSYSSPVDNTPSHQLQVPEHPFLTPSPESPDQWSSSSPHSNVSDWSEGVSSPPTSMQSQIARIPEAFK
UniProt P05412: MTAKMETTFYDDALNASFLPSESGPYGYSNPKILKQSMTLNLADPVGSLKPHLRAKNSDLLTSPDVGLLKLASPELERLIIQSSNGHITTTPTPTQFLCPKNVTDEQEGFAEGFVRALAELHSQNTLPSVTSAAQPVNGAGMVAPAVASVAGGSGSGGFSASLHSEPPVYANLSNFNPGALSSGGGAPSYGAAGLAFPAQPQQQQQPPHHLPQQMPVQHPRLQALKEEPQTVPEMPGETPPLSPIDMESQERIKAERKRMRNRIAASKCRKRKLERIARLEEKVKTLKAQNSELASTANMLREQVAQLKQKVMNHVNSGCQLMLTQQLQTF
UniProt Q9UM47, residues 40-2321: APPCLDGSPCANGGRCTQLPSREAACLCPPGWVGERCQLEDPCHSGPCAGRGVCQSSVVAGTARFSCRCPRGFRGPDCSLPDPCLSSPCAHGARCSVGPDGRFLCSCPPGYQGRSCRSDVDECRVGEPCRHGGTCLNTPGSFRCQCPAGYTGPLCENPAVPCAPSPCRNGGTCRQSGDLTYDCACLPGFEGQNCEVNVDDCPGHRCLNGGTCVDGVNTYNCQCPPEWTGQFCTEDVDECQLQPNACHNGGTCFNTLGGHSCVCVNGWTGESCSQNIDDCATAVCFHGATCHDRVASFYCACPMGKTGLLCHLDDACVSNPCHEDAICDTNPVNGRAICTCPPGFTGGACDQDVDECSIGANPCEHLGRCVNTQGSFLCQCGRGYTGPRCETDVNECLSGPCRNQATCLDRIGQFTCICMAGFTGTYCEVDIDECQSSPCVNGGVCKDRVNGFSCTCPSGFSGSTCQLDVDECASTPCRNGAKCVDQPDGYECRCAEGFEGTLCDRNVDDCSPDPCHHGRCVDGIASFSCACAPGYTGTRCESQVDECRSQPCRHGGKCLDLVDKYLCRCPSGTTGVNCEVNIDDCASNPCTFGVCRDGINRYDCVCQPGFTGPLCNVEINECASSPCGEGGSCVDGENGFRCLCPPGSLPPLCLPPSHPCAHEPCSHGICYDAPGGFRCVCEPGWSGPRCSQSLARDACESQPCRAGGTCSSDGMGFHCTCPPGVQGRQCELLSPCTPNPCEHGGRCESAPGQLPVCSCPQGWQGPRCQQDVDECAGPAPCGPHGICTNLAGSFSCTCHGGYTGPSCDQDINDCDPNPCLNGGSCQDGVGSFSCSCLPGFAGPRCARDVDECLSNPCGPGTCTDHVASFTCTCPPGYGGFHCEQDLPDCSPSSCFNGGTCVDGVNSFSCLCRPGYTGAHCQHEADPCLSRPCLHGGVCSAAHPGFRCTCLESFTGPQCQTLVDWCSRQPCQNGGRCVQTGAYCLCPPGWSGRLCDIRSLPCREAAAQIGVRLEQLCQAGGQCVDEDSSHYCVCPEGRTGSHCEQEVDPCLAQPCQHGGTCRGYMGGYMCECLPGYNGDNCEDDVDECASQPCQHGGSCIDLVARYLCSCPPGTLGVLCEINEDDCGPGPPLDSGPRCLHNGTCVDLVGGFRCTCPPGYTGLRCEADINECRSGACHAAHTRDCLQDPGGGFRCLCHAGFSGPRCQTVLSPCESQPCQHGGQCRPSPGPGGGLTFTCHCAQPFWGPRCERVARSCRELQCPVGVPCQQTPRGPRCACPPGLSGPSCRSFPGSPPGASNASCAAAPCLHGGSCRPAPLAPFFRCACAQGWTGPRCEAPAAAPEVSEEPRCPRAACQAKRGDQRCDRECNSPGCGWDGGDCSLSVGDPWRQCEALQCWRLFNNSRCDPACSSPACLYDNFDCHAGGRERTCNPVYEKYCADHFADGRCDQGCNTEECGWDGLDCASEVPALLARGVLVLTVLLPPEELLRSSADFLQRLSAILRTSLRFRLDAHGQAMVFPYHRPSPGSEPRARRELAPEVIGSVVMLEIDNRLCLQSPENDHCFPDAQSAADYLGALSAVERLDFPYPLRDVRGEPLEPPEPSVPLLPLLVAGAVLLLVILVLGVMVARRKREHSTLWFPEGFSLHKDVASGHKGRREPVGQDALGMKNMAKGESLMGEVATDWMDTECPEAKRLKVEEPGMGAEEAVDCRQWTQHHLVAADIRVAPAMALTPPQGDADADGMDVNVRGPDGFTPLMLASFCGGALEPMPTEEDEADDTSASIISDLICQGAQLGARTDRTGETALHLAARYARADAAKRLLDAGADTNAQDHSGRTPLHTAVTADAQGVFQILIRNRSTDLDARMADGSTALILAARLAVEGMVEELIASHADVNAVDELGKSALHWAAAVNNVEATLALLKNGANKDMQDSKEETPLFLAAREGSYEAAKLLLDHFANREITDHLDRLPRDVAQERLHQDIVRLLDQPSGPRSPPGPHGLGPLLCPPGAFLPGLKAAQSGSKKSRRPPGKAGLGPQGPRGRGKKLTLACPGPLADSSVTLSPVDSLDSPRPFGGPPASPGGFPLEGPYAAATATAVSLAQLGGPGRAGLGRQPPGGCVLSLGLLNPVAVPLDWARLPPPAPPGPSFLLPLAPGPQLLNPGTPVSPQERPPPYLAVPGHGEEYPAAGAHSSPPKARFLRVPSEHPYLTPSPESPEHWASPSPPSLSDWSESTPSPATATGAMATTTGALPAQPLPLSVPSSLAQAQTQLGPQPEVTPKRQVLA
UniProt P49336: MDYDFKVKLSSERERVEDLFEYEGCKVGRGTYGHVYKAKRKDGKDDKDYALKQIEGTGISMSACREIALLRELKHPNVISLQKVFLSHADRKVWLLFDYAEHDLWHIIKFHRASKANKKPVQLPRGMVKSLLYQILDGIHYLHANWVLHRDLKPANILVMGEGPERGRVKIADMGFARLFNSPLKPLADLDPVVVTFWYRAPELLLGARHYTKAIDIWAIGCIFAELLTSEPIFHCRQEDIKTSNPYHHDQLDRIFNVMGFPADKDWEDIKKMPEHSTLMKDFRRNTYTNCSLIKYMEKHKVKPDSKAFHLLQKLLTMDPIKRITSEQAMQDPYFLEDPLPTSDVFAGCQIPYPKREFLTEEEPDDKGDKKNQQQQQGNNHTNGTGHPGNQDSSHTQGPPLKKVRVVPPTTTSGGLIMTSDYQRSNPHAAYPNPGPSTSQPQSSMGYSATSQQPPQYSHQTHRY
UniProt Q969H0: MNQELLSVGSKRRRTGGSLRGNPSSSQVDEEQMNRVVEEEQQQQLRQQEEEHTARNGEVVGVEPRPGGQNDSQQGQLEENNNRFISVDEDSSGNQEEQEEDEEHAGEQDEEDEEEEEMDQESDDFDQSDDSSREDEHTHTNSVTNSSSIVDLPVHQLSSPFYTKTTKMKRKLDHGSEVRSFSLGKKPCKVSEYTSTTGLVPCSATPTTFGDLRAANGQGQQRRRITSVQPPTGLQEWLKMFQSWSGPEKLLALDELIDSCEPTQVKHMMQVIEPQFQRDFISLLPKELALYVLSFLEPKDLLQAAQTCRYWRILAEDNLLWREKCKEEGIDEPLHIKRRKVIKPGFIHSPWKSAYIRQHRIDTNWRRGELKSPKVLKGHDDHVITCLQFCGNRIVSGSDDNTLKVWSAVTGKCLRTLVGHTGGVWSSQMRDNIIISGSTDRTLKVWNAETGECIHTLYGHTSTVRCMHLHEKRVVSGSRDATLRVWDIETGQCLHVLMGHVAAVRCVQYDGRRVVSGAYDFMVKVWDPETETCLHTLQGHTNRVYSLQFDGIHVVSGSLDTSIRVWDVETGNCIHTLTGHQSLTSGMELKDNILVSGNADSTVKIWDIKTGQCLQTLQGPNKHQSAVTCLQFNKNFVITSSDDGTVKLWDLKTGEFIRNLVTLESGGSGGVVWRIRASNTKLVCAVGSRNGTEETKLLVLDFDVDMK

Experiments:
[1] = target: NOTCH1 intracellular domain, full length (NICD-FL) (human) (UniProt P46531); assay: co-IP and immunoblot with myc-NICD constructs in TICs
wild-type c-Jun = wild-type c-Jun (UniProt P05412); assay: IP with anti-Fbw7 antibody, Western blot
[2] = target: NOTCH1 intracellular domain, full length (NICD-FL) (human) (UniProt P46531); assay: TBC1D15 knockdown in TICs
[3] = target: NOTCH1 intracellular domain, full length (NICD-FL) (human) (UniProt P46531); assay: co-IP Western blot with NICD deletion mutants in CD133(+) TICs
[4] = target: NOTCH1 intracellular domain, full length (NICD-FL) (human) (UniProt P46531); assay: co-IP Western blot in shTBC1D15 CD133(+) TICs
[5] = target: NOTCH1 intracellular domain, full length (NICD-FL) (human) (UniProt P46531); assay: co-IP Western blot in CD133(+) TICs
NOTCH3 = NOTCH3 (UniProt Q9UM47); assay: large-scale immunoaffinity purification and LC-MS analysis
[6] = target: NOTCH1 intracellular domain, full length (NICD-FL) (human) (UniProt P46531); assay: co-IP Western blot of cell fractions of CD133(+) TICs
NUMB isoform 5 = target: T1, NUMB isoform 5 (UniProt P49757); assay: cell-free in vitro binding assay
T1 sequence (looked up): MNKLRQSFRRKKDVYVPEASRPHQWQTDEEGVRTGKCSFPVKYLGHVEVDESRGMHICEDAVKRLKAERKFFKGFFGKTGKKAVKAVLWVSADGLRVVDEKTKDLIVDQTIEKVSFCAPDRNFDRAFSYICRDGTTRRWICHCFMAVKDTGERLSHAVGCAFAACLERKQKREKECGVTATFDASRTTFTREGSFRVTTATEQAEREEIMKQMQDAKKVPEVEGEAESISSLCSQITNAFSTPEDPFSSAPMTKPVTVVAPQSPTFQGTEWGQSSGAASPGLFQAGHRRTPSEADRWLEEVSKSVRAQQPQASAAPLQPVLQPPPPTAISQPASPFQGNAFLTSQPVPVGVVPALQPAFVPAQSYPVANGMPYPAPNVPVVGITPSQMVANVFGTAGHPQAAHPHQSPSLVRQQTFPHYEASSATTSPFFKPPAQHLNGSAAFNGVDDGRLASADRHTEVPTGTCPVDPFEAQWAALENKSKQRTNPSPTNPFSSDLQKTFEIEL

GST-NUMB-PTB [7] = target: T2, GST-NUMB-PTB (UniProt P49757); assay: cell-free in vitro binding assay, GST fragments on beads
T2 sequence (looked up): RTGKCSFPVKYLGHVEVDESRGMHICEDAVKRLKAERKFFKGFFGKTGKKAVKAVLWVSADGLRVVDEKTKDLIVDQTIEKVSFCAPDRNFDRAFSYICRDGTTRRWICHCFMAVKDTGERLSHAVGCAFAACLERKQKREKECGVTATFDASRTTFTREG

GST-NUMB-full length = target: T3, GST-NUMB-full length (UniProt P49757); assay: as above
T3 sequence (looked up): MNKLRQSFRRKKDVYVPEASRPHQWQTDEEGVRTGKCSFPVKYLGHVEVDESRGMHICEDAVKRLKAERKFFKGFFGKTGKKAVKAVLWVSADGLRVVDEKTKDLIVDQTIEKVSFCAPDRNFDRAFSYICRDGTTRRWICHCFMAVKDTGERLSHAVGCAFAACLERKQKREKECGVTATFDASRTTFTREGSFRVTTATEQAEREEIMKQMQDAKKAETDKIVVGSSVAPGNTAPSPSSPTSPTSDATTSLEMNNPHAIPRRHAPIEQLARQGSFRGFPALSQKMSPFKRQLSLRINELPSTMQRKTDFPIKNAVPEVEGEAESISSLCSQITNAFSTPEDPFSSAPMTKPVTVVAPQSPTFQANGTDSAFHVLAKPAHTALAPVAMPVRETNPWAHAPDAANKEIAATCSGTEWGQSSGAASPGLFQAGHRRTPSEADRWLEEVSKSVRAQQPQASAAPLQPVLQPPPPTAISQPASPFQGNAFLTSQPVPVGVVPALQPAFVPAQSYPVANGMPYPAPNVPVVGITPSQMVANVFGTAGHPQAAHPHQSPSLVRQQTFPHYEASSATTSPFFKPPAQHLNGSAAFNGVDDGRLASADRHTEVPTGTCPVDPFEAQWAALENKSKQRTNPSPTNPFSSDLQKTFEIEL

GST-NUMB-PTB [8] = target: T2, GST-NUMB-PTB; assay: cell-free in vitro binding assay

Molecule: CDK8 (from UniProt P49336 1-464) (enzyme)
binding [1]: binds

Molecule: Fbw7 (from UniProt Q969H0 1-707) (enzyme)
binding (wild-type c-Jun): binds

B3: Flag-tagged TBC1D15 protein (protein, UniProt Q8TC07 1-691, looked up)
chain: MAAAGVVSGKIIYEQEGVYIHSSCGKTNDQDGLISGILRVLEKDAEVIVDWRPLDDALDSSSILYARKDSSSVVEWTQAPKERGHRGSEHLNSYEAEWDMVNTVSFKRKPHTNGDAPSHRNGKSKWSFLFSLTDLKSIKQNKEGMGWSYLVFCLKDDVVLPALHFHQGDSKLLIESLEKYVVLCESPQDKRTLLVNCQNKSLSQSFENLLDEPAYGLIQAGLLDRRKLLWAIHHWKKIKKDPYTATMIGFSKVTNYIFDSLRGSDPSTHQRPPSEMADFLSDAIPGLKINQQEEPGFEVITRIDLGERPVVQRREPVSLEEWTKNIDSEGRILNVDNMKQMIFRGGLSHALRKQAWKFLLGYFPWDSTKEERTQLQKQKTDEYFRMKLQWKSISQEQEKRNSRLRDYRSLIEKDVNRTDRTNKFYEGQDNPGLILLHDILMTYCMYDFDLGYVQGMSDLLSPLLYVMENEVDAFWCFASYMDQMHQNFEEQMQGMKTQLIQLSTLLRLLDSGFCSYLESQDSGYLYFCFRWLLIRFKREFSFLDILRLWEVMWTELPCTNFHLLLCCAILESEKQQIMEKHYGFNEILKHINELSMKIDVEDILCKAEAISLQMVKCKELPQAVCEILGLQGSEVTTPDSDVGEDENVVMTPCPTSAFQSNALPTLSASGARNDSPTQIPVSSDVCRLTPA
binding (NUMB isoform 5): binds

Continued, values first:

binding [2]: binds
B1: NUMB (protein, UniProt P49757 1-651, looked up)
chain: MNKLRQSFRRKKDVYVPEASRPHQWQTDEEGVRTGKCSFPVKYLGHVEVDESRGMHICEDAVKRLKAERKFFKGFFGKTGKKAVKAVLWVSADGLRVVDEKTKDLIVDQTIEKVSFCAPDRNFDRAFSYICRDGTTRRWICHCFMAVKDTGERLSHAVGCAFAACLERKQKREKECGVTATFDASRTTFTREGSFRVTTATEQAEREEIMKQMQDAKKAETDKIVVGSSVAPGNTAPSPSSPTSPTSDATTSLEMNNPHAIPRRHAPIEQLARQGSFRGFPALSQKMSPFKRQLSLRINELPSTMQRKTDFPIKNAVPEVEGEAESISSLCSQITNAFSTPEDPFSSAPMTKPVTVVAPQSPTFQANGTDSAFHVLAKPAHTALAPVAMPVRETNPWAHAPDAANKEIAATCSGTEWGQSSGAASPGLFQAGHRRTPSEADRWLEEVSKSVRAQQPQASAAPLQPVLQPPPPTAISQPASPFQGNAFLTSQPVPVGVVPALQPAFVPAQSYPVANGMPYPAPNVPVVGITPSQMVANVFGTAGHPQAAHPHQSPSLVRQQTFPHYEASSATTSPFFKPPAQHLNGSAAFNGVDDGRLASADRHTEVPTGTCPVDPFEAQWAALENKSKQRTNPSPTNPFSSDLQKTFEIEL

binding [3]: binds | binding [4]: binds | binding [1]: binds | binding [5]: binds | binding (NOTCH3): binds | binding [6]: binds
B2: Tre2-Bub2-Cdc16 domain family member 15 (TBC1D15) (other, UniProt Q8TC07 1-691, looked up)
chain: MAAAGVVSGKIIYEQEGVYIHSSCGKTNDQDGLISGILRVLEKDAEVIVDWRPLDDALDSSSILYARKDSSSVVEWTQAPKERGHRGSEHLNSYEAEWDMVNTVSFKRKPHTNGDAPSHRNGKSKWSFLFSLTDLKSIKQNKEGMGWSYLVFCLKDDVVLPALHFHQGDSKLLIESLEKYVVLCESPQDKRTLLVNCQNKSLSQSFENLLDEPAYGLIQAGLLDRRKLLWAIHHWKKIKKDPYTATMIGFSKVTNYIFDSLRGSDPSTHQRPPSEMADFLSDAIPGLKINQQEEPGFEVITRIDLGERPVVQRREPVSLEEWTKNIDSEGRILNVDNMKQMIFRGGLSHALRKQAWKFLLGYFPWDSTKEERTQLQKQKTDEYFRMKLQWKSISQEQEKRNSRLRDYRSLIEKDVNRTDRTNKFYEGQDNPGLILLHDILMTYCMYDFDLGYVQGMSDLLSPLLYVMENEVDAFWCFASYMDQMHQNFEEQMQGMKTQLIQLSTLLRLLDSGFCSYLESQDSGYLYFCFRWLLIRFKREFSFLDILRLWEVMWTELPCTNFHLLLCCAILESEKQQIMEKHYGFNEILKHINELSMKIDVEDILCKAEAISLQMVKCKELPQAVCEILGLQGSEVTTPDSDVGEDENVVMTPCPTSAFQSNALPTLSASGARNDSPTQIPVSSDVCRLTPA
notes: TBC1D15 as present in cell lysates (co-IP); also called TBC1 domain family member 15

binding (GST-NUMB-PTB [7]): binds | binding (GST-NUMB-full length): binds | binding (GST-NUMB-PTB [8]): binds
B4: purified TBC1D15 protein (protein, UniProt Q8TC07 1-691, looked up)
chain: MAAAGVVSGKIIYEQEGVYIHSSCGKTNDQDGLISGILRVLEKDAEVIVDWRPLDDALDSSSILYARKDSSSVVEWTQAPKERGHRGSEHLNSYEAEWDMVNTVSFKRKPHTNGDAPSHRNGKSKWSFLFSLTDLKSIKQNKEGMGWSYLVFCLKDDVVLPALHFHQGDSKLLIESLEKYVVLCESPQDKRTLLVNCQNKSLSQSFENLLDEPAYGLIQAGLLDRRKLLWAIHHWKKIKKDPYTATMIGFSKVTNYIFDSLRGSDPSTHQRPPSEMADFLSDAIPGLKINQQEEPGFEVITRIDLGERPVVQRREPVSLEEWTKNIDSEGRILNVDNMKQMIFRGGLSHALRKQAWKFLLGYFPWDSTKEERTQLQKQKTDEYFRMKLQWKSISQEQEKRNSRLRDYRSLIEKDVNRTDRTNKFYEGQDNPGLILLHDILMTYCMYDFDLGYVQGMSDLLSPLLYVMENEVDAFWCFASYMDQMHQNFEEQMQGMKTQLIQLSTLLRLLDSGFCSYLESQDSGYLYFCFRWLLIRFKREFSFLDILRLWEVMWTELPCTNFHLLLCCAILESEKQQIMEKHYGFNEILKHINELSMKIDVEDILCKAEAISLQMVKCKELPQAVCEILGLQGSEVTTPDSDVGEDENVVMTPCPTSAFQSNALPTLSASGARNDSPTQIPVSSDVCRLTPA
